Assay results: the supplement of paper PMC5836539
± gives the standard deviation of the averaged measurements. This data set is noisy: repeats of one test often differ as much as different tests do.

Amino acid sequences for entries named in this document (tags omitted). A change or cut given only in a name is not applied to a line headed by its entry.
UniProt P35579, whole entry, looked up: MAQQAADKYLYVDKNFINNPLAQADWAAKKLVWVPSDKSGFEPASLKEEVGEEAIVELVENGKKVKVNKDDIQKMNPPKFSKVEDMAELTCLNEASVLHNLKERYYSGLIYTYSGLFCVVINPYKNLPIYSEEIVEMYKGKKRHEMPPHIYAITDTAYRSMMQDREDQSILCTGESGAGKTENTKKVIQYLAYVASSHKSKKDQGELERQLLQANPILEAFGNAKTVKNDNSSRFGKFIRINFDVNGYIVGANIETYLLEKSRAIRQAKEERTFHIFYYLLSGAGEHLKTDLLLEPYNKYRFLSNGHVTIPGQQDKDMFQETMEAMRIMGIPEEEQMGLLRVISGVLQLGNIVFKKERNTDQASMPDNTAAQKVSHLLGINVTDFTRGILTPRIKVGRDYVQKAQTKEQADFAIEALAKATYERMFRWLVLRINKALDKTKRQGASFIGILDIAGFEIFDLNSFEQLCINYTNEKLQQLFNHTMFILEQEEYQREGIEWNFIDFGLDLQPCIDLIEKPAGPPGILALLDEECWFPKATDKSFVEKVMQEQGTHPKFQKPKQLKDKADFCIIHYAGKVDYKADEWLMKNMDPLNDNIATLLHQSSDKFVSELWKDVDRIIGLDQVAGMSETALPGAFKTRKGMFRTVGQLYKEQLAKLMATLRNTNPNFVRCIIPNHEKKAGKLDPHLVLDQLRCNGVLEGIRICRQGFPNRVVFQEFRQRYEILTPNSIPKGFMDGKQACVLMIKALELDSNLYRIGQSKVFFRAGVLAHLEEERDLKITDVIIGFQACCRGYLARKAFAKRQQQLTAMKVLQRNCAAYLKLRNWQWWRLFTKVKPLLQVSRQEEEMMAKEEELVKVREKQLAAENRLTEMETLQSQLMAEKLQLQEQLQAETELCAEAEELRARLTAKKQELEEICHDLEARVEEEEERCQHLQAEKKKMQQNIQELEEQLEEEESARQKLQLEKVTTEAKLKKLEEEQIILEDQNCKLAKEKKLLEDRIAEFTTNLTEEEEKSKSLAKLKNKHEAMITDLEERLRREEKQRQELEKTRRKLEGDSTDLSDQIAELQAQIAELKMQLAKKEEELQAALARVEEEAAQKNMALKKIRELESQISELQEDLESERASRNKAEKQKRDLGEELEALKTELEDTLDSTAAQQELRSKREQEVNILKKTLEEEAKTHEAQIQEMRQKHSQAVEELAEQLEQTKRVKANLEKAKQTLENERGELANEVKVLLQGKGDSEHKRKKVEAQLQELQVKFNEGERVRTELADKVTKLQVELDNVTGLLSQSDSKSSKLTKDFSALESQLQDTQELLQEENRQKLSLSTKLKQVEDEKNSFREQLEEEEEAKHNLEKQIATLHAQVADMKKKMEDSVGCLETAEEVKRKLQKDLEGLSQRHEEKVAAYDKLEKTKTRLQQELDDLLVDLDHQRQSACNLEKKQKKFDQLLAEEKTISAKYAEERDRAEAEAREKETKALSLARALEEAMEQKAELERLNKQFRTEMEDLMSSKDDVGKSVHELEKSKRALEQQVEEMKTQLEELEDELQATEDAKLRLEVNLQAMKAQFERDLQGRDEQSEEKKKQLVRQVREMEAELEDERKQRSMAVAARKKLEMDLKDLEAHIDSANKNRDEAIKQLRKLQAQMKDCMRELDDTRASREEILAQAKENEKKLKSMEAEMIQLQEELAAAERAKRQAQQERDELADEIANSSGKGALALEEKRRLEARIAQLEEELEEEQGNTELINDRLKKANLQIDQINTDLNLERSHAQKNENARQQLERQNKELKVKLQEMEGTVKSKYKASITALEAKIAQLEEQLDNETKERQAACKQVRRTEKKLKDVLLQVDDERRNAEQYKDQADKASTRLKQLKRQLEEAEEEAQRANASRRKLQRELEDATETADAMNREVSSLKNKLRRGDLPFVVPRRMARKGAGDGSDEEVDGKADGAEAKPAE
UniProt P19338, whole entry, looked up: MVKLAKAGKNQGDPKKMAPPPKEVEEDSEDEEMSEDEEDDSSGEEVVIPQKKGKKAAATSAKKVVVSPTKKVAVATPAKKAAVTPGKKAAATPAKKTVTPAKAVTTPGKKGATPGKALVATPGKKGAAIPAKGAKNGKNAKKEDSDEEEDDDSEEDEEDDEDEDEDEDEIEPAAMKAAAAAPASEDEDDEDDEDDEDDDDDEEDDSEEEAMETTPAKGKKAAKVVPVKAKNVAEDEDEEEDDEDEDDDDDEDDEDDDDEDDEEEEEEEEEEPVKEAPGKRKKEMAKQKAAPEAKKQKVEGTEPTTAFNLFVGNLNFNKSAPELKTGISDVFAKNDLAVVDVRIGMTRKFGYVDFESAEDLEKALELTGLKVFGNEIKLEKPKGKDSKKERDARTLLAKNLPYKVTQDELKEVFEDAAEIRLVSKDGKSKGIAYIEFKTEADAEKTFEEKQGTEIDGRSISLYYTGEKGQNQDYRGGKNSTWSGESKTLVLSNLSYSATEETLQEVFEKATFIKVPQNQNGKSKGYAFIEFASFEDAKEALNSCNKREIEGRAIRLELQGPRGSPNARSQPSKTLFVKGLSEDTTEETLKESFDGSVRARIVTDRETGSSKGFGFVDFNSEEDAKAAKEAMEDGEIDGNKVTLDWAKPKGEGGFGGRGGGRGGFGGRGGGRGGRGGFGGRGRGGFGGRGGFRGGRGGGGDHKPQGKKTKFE
UniProt Q15121, whole entry: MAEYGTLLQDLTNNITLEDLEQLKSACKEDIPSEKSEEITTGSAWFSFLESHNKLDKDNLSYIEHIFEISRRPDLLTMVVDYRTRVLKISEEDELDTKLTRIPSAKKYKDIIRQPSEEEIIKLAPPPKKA
UniProt P00558: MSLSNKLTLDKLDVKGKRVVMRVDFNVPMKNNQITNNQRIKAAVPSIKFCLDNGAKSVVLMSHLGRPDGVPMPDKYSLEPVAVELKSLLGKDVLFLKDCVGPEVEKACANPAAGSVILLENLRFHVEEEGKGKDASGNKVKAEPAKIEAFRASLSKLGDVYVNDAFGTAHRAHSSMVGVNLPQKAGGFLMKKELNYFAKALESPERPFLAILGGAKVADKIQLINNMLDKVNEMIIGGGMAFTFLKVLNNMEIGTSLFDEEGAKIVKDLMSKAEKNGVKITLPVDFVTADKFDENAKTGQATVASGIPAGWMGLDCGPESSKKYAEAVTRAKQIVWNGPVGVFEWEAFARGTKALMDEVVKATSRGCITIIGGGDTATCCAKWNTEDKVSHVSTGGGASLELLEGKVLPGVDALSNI
UniProt O15173: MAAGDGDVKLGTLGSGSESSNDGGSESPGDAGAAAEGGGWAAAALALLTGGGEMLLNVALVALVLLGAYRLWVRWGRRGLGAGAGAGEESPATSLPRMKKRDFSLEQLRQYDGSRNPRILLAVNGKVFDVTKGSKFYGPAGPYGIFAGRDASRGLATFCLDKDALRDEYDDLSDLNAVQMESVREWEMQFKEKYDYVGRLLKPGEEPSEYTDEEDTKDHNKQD
UniProt Q15435: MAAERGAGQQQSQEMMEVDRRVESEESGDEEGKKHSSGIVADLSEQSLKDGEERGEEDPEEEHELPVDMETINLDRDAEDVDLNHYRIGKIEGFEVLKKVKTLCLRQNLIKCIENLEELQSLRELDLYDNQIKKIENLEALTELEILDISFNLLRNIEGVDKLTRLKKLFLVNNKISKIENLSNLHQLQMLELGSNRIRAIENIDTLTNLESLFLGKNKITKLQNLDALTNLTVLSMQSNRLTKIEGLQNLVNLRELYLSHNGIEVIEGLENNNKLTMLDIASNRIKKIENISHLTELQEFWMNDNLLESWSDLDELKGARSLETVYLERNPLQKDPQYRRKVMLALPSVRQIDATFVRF
UniProt Q96EV2: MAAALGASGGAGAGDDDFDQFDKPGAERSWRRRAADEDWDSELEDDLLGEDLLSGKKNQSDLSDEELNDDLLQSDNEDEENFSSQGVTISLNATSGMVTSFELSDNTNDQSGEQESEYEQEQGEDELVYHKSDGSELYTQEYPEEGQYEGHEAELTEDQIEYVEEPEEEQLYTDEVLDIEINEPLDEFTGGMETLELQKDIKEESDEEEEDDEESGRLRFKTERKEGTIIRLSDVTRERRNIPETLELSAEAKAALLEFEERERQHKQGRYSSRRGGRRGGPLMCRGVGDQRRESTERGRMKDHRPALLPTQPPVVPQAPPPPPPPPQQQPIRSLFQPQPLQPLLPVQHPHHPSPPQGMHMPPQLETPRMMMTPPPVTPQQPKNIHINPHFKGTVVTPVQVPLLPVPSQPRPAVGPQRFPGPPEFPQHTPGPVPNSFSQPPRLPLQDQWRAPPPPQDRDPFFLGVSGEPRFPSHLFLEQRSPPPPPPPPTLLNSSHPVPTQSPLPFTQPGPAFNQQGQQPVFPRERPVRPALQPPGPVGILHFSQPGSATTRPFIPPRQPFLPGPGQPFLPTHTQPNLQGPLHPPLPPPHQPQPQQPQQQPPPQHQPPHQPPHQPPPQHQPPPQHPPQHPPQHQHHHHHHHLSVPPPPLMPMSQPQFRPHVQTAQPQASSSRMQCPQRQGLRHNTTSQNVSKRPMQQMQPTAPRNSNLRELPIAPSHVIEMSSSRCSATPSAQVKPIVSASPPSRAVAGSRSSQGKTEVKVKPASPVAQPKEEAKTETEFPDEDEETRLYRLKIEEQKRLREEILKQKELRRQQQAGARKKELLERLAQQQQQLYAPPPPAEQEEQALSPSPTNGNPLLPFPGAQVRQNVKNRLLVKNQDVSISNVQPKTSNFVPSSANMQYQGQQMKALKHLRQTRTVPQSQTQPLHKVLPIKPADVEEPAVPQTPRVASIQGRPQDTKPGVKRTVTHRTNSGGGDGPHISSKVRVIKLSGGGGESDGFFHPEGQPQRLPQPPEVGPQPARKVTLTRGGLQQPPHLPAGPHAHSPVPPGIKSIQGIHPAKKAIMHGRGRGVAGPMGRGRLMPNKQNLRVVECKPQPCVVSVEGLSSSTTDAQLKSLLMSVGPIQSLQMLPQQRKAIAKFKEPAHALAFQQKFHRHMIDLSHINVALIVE
UniProt Q9BUL9: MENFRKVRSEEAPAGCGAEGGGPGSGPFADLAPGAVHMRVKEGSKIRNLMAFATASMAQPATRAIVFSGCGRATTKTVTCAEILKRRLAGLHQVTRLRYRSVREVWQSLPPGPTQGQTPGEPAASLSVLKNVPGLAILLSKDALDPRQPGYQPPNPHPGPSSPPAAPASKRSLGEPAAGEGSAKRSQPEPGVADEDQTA
UniProt Q9P2E9: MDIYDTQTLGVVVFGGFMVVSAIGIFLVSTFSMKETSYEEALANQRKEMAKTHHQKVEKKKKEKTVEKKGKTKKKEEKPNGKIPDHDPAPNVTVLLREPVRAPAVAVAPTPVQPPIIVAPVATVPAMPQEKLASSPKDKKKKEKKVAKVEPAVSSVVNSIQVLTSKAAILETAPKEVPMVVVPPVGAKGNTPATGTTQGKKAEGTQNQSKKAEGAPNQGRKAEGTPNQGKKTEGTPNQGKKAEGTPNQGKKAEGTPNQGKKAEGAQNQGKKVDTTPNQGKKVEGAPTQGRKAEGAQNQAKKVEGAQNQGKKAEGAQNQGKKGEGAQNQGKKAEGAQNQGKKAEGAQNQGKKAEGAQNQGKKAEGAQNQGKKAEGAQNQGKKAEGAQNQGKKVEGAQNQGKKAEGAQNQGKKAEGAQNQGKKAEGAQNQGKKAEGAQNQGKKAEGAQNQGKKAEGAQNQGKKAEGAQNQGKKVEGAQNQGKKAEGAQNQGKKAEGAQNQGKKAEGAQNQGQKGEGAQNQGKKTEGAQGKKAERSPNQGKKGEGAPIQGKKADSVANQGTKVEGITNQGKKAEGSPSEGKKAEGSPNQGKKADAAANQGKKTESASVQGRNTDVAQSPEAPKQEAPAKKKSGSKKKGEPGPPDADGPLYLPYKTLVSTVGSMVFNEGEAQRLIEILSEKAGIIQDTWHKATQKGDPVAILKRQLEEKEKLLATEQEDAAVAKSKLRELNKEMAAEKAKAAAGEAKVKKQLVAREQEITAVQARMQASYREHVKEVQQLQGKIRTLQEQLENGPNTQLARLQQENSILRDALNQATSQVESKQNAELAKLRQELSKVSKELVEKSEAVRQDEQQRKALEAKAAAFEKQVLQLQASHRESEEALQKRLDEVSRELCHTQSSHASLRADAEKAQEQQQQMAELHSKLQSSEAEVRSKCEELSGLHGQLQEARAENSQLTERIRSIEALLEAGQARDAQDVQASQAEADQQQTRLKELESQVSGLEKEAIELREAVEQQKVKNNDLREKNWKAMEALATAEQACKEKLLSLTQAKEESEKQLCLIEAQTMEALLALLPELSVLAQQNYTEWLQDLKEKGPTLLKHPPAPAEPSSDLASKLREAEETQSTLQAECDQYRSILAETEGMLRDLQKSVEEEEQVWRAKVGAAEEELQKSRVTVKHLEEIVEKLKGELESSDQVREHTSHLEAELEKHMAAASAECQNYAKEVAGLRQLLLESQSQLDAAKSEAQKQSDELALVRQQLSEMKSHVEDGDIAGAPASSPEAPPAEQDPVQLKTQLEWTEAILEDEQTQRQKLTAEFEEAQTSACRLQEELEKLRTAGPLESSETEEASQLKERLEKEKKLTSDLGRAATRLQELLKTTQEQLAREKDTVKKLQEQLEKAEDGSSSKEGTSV

Assays:
XL888 [1] = compound: T1, CC[C@@H](C)Nc1cc(C(=O)N[C@H]2C[C@H]3CC[C@@H](C2)N3c2ccc(C(=O)C3CC3)cn2)c(C)cc1C(N)=O [XL888]; assay: phosphopeptide melting temperature shift (XL888 minus DMSO); higher = stabilised by drug treatment; conditions: 100 µM; treatment time 2 h; layout: intact cells; SK-Mel 28
Method: (§1)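 Phospho-TPP in intact SK-Mel 28 cells treated with 100 uM XL888 or DMSO for 2 h, heated at 10 temperatures (37-67 C) for 3 min, soluble fraction TMT10plex-labelled and TiO2 phospho-enriched. Melting curves were fitted per phosphopeptide; the value is the melting point difference (drug minus vehicle) in each of two biological replicates.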

XL888 [2] = compound: T1, XL888; assay: as above; conditions: 100 µM; treatment time 2 h; layout: intact cells; SK-Mel 24
Method: as §1, with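 “24” for “28”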

Target | phosphopeptide melting temperature shift (XL888 [1]) [°C] | phosphopeptide melting temperature shift (XL888 [2]) [°C]
MYH9 phosphosite_1943 (phosphosite position: 1943) (UniProt P35579) | 0.918 ± 0.35 | 0.379
NAP1L4 phosphosite_125 (phosphosite position: 125) (UniProt Q99733) | 0.378 ± 0.85 | 0.0447 ± 0.098
NCAPG phosphosite_674 (phosphosite position: 674) (UniProt Q9BPX3) | 0.915 ± 0.97 | 0.635
NCL phosphosite_67 (phosphosite position: 67) (UniProt P19338) | 2.82 | -0.493 ± 0.18
NCL phosphosite_563 (phosphosite position: 563) (UniProt P19338) | -0.0516 ± 1.1 | 1.76
NCL phosphosite_619 (phosphosite position: 619) (UniProt P19338) | -1.33 | 0.0511
NKAP phosphosite_149 (phosphosite position: 149) (UniProt Q8N5F7) | -0.281 ± 1.8 | 0.515 ± 0.46
NPM1 phosphosite_70 (phosphosite position: 70) (UniProt P06748) | -0.911 ± 0.21 | -1.48
NSUN2 phosphosite_743 (phosphosite position: 743) (UniProt Q08J23) | -0.581 ± 3.3 | 0.454
NSUN2 phosphosite_751 (phosphosite position: 751) (UniProt Q08J23) | 1.32 ± 0.77 | 3.37
PAK1 phosphosite_174 (phosphosite position: 174) (UniProt Q13153) | 1.69 ± 0.47 | 1.32
PAK4 phosphosite_474 (phosphosite position: 474) (UniProt O96013) | -0.412 ± 0.92 | -1.409 ± 0.0065
PDLIM4 phosphosite_112 (phosphosite position: 112) (UniProt P50479) | 1.6 | 1.36
PDLIM4 phosphosite_120 (phosphosite position: 120) (UniProt P50479) | -2.17 | 0.427 ± 0.71
PEA15 phosphosite_116 (phosphosite position: 116) (UniProt Q15121) | -0.00752 ± 0.19 | 0.161 ± 0.12
PFKFB2 phosphosite_483 (phosphosite position: 483) (UniProt O60825) | -0.218 ± 0.34 | 0.0408 ± 0.56
PGK1 phosphosite_203 (phosphosite position: 203) (UniProt P00558) | 7.15e-05 ± 0.12 | -0.0654
PGM2 phosphosite_165 (phosphosite position: 165) (UniProt Q96G03) | -0.195 | 0.266 ± 1.7
PGRMC2 phosphosite_211 (phosphosite position: 211) (UniProt O15173) | 1.54 ± 1.4 | -0.977
POLR3G phosphosite_157 (phosphosite position: 157) (UniProt O15318) | 0.262 ± 0.8 | 2.51
PPFIBP2 phosphosite_387 (phosphosite position: 387) (UniProt Q8ND30) | 0.622 ± 0.15 | 0.354 ± 0.053

Target | phosphopeptide melting temperature shift (XL888 [1]) [°C] | phosphopeptide melting temperature shift (XL888 [2]) [°C]
PPP1R7 phosphosite_27 (phosphosite position: 27) (UniProt Q15435) | 0.135 ± 0.75 | -0.693
PRKAR1A phosphosite_83 (phosphosite position: 83) (UniProt P10644) | 0.769 ± 0.5 | 0.0224 ± 0.0057
PRKAR2A phosphosite_99 (phosphosite position: 99) (UniProt P13861) | 1.04 ± 1.4 | 0.255 ± 0.079
PRKAR2B phosphosite_114 (phosphosite position: 114) (UniProt P31323) | 0.635 ± 2.2 | 0.104
PSIP1 phosphosite_122 (phosphosite position: 122) (UniProt O75475) | -1.15 ± 0.46 | 0.483 ± 0.094
RAD9A phosphosite_328 (phosphosite position: 328) (UniProt Q99638) | 0.594 | -0.707
RBM17 phosphosite_155 (phosphosite position: 155) (UniProt Q96I25) | -0.0209 ± 0.13 | 0.991
RBM33 phosphosite_205 (phosphosite position: 205) (UniProt Q96EV2) | -0.62 | 0.506
RNF20 phosphosite_138 (phosphosite position: 138) (UniProt Q5VTR2) | 2.323 ± 0.005 | 2.6
ROCK1 phosphosite_1105 (phosphosite position: 1105) (UniProt Q13464) | 1.36 ± 0.49 | 2.64
RPLP0 phosphosite_304 (phosphosite position: 304) (UniProt P05388) | 0.928 ± 0.91 | 6.33
RPLP0 phosphosite_307 (phosphosite position: 307) (UniProt P05388) | -0.113 ± 0.26 | -3.08 ± 1
RPP25 phosphosite_162 (phosphosite position: 162) (UniProt Q9BUL9) | 0.533 | 0.976
RPRD1B phosphosite_134 (phosphosite position: 134) (UniProt Q9NQG5) | 0.807 ± 0.19 | 0.294 ± 0.29
RPS3 phosphosite_221 (phosphosite position: 221) (UniProt P23396) | -0.697 ± 0.31 | -1.96 ± 0.15
RRBP1 phosphosite_533 (phosphosite position: 533) (UniProt Q9P2E9) | -0.0725 ± 0.14 | 0.55
RRBP1 phosphosite_573 (phosphosite position: 573) (UniProt Q9P2E9) | -1.2 | -0.36
RRBP1 phosphosite_583 (phosphosite position: 583) (UniProt Q9P2E9) | 0.768 ± 0.51 | 0.781
RRBP1 phosphosite_1276 (phosphosite position: 1276) (UniProt Q9P2E9) | 1.88 ± 1.8 | 0.273
RRBP1 phosphosite_1277 (phosphosite position: 1277) (UniProt Q9P2E9) | 2.5 ± 1.1 | 0.763

Three entries from above, with tabs.
Target	phosphopeptide melting temperature shift (XL888 [1]) [°C]	phosphopeptide melting temperature shift (XL888 [2]) [°C]
PRKAR2A phosphosite_99 (phosphosite position: 99) (UniProt P13861)	1.04 ± 1.4	0.255 ± 0.079
PRKAR2B phosphosite_114 (phosphosite position: 114) (UniProt P31323)	0.635 ± 2.2	0.104
PSIP1 phosphosite_122 (phosphosite position: 122) (UniProt O75475)	-1.15 ± 0.46	0.483 ± 0.094
